No constants are given. Whether binding was seen depends on the method and setting. In cells and extracts the contact can be indirect. A yes stands for co-enrichment or nearness to the bait. Other partners may have been found.
Molecular target: IGF2BP3 (human (endogenous in breast cancer cells)) (UniProt O00425)
Assay: affinity purification with mass spectrometry; co-IP of IGF2BP3 from breast cancer cells followed by mass spectrometry; hits intersected with the RNA pull-down using circSIPA1L3 probes

Sequences of proteins named here, by UniProt entry; tags and fusion partners are left off.
UniProt O00425: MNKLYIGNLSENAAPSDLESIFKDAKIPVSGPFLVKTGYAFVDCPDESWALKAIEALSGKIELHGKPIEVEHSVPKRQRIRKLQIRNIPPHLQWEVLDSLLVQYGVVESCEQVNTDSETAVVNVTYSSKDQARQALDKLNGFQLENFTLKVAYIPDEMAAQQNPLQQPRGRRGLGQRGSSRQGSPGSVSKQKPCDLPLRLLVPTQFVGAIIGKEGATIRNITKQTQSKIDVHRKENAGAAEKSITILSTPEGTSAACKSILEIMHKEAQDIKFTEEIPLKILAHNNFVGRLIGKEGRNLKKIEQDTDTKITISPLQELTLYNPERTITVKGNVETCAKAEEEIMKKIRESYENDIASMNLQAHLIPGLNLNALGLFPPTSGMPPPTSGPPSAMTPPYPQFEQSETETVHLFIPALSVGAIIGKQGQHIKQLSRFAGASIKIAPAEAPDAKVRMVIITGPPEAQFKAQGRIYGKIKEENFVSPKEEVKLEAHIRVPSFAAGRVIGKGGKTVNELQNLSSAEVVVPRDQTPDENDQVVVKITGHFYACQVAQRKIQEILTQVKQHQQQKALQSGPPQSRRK
UniProt Q93009: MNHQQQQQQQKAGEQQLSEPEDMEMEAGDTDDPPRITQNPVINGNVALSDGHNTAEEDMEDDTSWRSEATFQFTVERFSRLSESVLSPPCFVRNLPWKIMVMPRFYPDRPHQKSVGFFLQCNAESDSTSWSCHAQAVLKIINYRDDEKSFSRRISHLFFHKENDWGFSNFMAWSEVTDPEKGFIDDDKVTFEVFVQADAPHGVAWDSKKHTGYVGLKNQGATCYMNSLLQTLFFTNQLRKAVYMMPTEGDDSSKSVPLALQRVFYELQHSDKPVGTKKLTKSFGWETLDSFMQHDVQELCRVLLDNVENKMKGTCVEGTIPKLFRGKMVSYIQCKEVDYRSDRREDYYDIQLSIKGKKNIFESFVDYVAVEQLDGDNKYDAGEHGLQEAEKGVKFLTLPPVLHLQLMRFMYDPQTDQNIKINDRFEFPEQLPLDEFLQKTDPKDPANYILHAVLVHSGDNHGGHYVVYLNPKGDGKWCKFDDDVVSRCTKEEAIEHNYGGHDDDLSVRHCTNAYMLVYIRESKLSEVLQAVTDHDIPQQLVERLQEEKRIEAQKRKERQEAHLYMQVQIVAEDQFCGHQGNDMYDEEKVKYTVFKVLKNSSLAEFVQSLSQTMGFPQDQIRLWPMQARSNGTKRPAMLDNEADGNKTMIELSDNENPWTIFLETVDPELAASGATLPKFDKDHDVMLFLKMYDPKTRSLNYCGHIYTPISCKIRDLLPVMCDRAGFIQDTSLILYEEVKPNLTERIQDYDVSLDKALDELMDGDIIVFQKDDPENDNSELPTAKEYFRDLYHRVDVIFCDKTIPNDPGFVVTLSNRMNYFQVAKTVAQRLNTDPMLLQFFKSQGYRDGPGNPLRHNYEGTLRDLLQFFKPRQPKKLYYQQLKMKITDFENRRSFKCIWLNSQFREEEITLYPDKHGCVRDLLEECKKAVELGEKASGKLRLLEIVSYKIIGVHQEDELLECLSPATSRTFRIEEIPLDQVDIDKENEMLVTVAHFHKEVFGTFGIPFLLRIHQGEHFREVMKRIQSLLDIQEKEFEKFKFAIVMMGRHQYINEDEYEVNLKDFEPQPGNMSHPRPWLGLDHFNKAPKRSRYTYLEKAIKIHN

binding: binds
Substance: ubiquitin specific peptidase 7 (USP7) (from UniProt Q93009 1-1102) (enzyme)

Reference: paper PMC11161950
